# Test results reported in patent US10744213B2, “Fluorescent compounds for imaging of blood vessels and blood flow, and an in vivo screen for pro- and anti-angiogenic agents” (COLOSSUS BIOPHARMA CONSULTANTS COMPANY, LIMITED, priority 2017, dated 2020).
# At least one compound was matched to its structure with a doubt left.
# Tested on: Zebrafish embryos
# Assay: Anti-angiogenic activity in zebrafish embryos, imaged by fluorescent staining of blood vessels
# Format: in vivo, zebrafish (Danio rerio)
# Settings: 1, 2.5 and 5 μM Sunitinib from 24 hpf for 48 hours; staining with 20 μM dye
structure (smiles),measurement,value
CCN(CC)CCNC(=O)c1c(C)[nH]c(/C=C2\C(=O)Nc3ccc(F)cc32)c1C [Sunitinib],Effect on vascular development,increasing deficiency of vascular development
